The record followed here is paper PMC6830812.

Results are given in words; binding and its absence hold for the method and conditions named. In cells and extracts the contact can be indirect. Some binding calls cover weakened binding; strength is not graded here. Sequences can lack the tags named with a protein.

The target in this assay is T1, TBSV p33-cYFP (tomato bushy stunt virus (TBSV)) (UniProt P15962).
T1 sequence: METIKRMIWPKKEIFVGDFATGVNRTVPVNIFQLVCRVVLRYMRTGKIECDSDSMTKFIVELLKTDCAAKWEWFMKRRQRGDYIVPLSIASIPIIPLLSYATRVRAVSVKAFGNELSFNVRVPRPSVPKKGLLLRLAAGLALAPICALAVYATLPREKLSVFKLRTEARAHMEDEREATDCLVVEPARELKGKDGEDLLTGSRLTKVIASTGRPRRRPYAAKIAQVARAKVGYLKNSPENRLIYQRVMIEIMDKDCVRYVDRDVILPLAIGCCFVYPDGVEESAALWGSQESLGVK
Kind of assay: split reporter; BiFC in N. benthamiana leaves; cYFP-tagged replication proteins and nYFP-tagged host proteins expressed via agroinfiltration; confocal microscopy with peroxisomal or mitochondrial markers.

B1: nYFP-AtAdh1 (enzyme, UniProt P06525 1-379)
chain: MSTTGQIIRCKAAVAWEAGKPLVIEEVEVAPPQKHEVRIKILFTSLCHTDVYFWEAKGQTPLFPRIFGHEAGGIVESVGEGVTDLQPGDHVLPIFTGECGECRHCHSEESNMCDLLRINTERGGMIHDGESRFSINGKPIYHFLGTSTFSEYTVVHSGQVAKINPDAPLDKVCIVSCGLSTGLGATLNVAKPKKGQSVAIFGLGAVGLGAAEGARIAGASRIIGVDFNSKRFDQAKEFGVTECVNPKDHDKPIQQVIAEMTDGGVDRSVECTGSVQAMIQAFECVHDGWGVAVLVGVPSKDDAFKTHPMNFLNERTLKGTFFGNYKPKTDIPGVVEKYMNKELELEKFITHTVPFSEINKAFDYMLKGESIRCIITMGA
For the molecule B1, the binding entry was “binds”.
